Laboratory results: patent US5583142A, “Analgesic and nootropic drugs” (priority 1992, dated 1996)
“And” between values parts separate entries of the source, which are not always exact repeats. Identical values can stand only once.

Experiments:
in vivo [1] = conditions: mouse, sc
From the text: All products tested to detect their antinociceptive activity had been previously tested by the rota-rod test to determine their maximum utilizable dose in analgesic tests. In fact, by this test it is possible to determine the highest dose of drug not impairing the normal performance of animals in a test that simultaneously evaluates motor coordination, equilibrium, resistance to fatigue, and muscle strength. This test is meant to evaluate the capability of mice to stay balanced on a rotating rod [cf. Vaught et al., Neuropharmacology, 24 (3) 211-216 (1985)].
The calculated doses were those used in the two analgesic tests on mice.

in vivo [2] = conditions: mouse, sc; remark: listed apart in the source
From the text: (§1) Potency, efficacy and toxicity of SM21, PG9 and SM32 in comparison with
(§2) four principal reference analgesic drugs tested in mouse. As analgesic

[3] = test system: presynaptic muscarinic autoreceptor; conditions: cited from earlier work
[4] = mouse, in vivo
Method: The analgesic action was detected in mouse, rat, guinea pig and dog. The mouse was subjected to hot plate and writhing tests; the rat to tail-flick and paw-pressure tests; the guinea pig to paw-pressure test only; the dog to the test described by Vainio et al. [J. Vet. Pharmacol. Ther., 12, 225-231 (1989)] using an electric stimulation. Consequently, the claimed compounds were tested with pain being induced by stimuli of different nature: thermal (hot plate and tail flick), chemical (writhing by acetic acid), mechanical (paw pressure) and electrical (cutaneous stimulation).
as §1, §2

SMILES: CN1CC[C@]23c4c5ccc(O)c4O[C@H]2[C@@H](O)C=C[C@H]3[C@H]1C5.Cl [Morphine HCl]
- NOAEL (in vivo [1]): 8.2 mg/kg
- LD50 (in vivo [2]): 531 mg/kg and 1650 µmol/kg

SMILES: CCN(CC)CC(=O)Nc1c(C)cccc1C [lidocaine]
- selectivity and efficacy as antagonists of the presynaptic muscarinic autoreceptor [3]: little selective as well as little efficacious

SMILES: CN(C)CCOC(c1ccccc1)c1ccccc1 [Diphenhydramine]
- NOAEL (in vivo [1]): 20.5 mg/kg
- Efficacy as analgesic (Morphine = 100), AUC (Area Under Curve) [4]: 28
- LD50 (in vivo [2]): 127 mg/kg and 497 µmol/kg
